Earlier results as cited in publication PMC11651071 (International Journal of Nanomedicine, 2024).

Settings: cited from earlier work

For `COc1cc(/C=C/C(=O)CC(=O)/C=C/c2ccc(O)c(OC)c2)ccc1O` [CU, Curcumin], the Water solubility is given as “approximately 0.125 mg/L”.
